Data as given in PubChem BioAssay AID504791 (Drosophila RNAi Screening Center, 2011).
The deposit covers about 23,000 reagents; below is an unselected part of those with a known target gene and a result. Of all reagents, 199 (0.86%) got an active call. 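Plate-scaled ratios behind the calls are not deposited; printed light signals are raw; many rows marked increased or decreased are still called inactive.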 A plus sign joins genes that one reagent is predicted to hit. The record does not give: the direction of the score.

- Screen: 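Genes whose knock-down strengthens or weakens small-RNA reporter silencing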 (primary screen)
- Cells: Drosophila S2-derived reporter cells
- Reagent: long dsRNA against Drosophila genes, about 150-250 ng dsRNA per well (siRNA assay); about 80-120 ng (miRNA assay)
- Timing: about 5 days (siRNA assay); about 4 days (miRNA assay)
- Conditions: copper sulfate induction of reporters: 25 µM (siRNA assay); 200 mM stated (miRNA assay), 1-2 days before reading
- Measurement: 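Per-well ratio of Renilla over firefly light, expressed relative to that plate's average ratio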
- Call rule: 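a well was a first-pass pick when its plate-scaled ratio rose above 1.5 (siRNA assay) or 1.6 (miRNA assay), or dropped below 0.6; a gene counted only if two separate dsRNAs agreed on retest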

target | amplicon | stable siRNA reporter change | miRNA reporter change | stable assay Renilla, run 1 (luminescence) | stable assay firefly, run 1 (luminescence) | outcome
AANATL2 (GeneID 33874) | DRSC03227 | – | – | 7822 | 4.07e5 | inactive
CG33225 (GeneID 2768860) | DRSC03881 | – | – | 5460 | 3.69e5 | inactive
Plp (GeneID 3772382) | DRSC10006 | – | – | 7850 | 4.22e5 | inactive
Plp (GeneID 3772382) | DRSC10333 | – | – | 8340 | 3.80e5 | inactive
Plp (GeneID 3772382) | DRSC10700 | – | – | 9132 | 3.51e5 | inactive
CG34025 (GeneID 3885633) | DRSC08014 | – | – | 4639 | 3.76e5 | inactive
Cda4 (GeneID 33144) | DRSC20623 | – | – | 5083 | 3.05e5 | inactive
Cda4 (GeneID 33144) | DRSC20641 | – | – | 5139 | 3.19e5 | inactive
Cda4 (GeneID 33144) | DRSC20642 | – | – | 5532 | 3.57e5 | inactive
CYLD (GeneID 34380) | DRSC02870 | – | – | 7775 | 3.40e5 | inactive
CG43773 (GeneID 33617) | DRSC00287 | – | – | 6619 | 4.17e5 | inactive
CG43773 (GeneID 33617) | DRSC00288 | – | – | 7246 | 4.03e5 | inactive
pes (GeneID 34087) | DRSC03033 | – | – | 6252 | 3.26e5 | inactive
Tet (GeneID 38347) | DRSC08550 | – | – | 11231 | 6.33e5 | inactive
CG30026 (GeneID 246399) | DRSC05276 | – | – | 6276 | 3.02e5 | inactive
CR16735 (GeneID 10178810) | DRSC15144 | – | – | 6627 | 5.02e5 | inactive
Hpr1 (GeneID 40723) | DRSC12296 | – | – | 7882 | 4.52e5 | inactive
CG4783 (GeneID 42381) | DRSC15644 | – | – | 4372 | 4.17e5 | inactive
parvin (GeneID 32990) | DRSC19468 | – | – | 5083 | 5.33e5 | inactive
hzg (GeneID 39748) | DRSC10549 | – | – | 5375 | 2.14e5 | inactive
CG14111 (GeneID 39497) | DRSC10114 | – | – | 5248 | 2.92e5 | inactive
Iru (GeneID 41080) | DRSC14457 | – | – | 9395 | 4.16e5 | inactive
CG13239 (GeneID 40503) | DRSC11694 | – | – | 7949 | 4.37e5 | inactive
CG31274 + MESK4 | DRSC13202 | – | – | 4091 | 3.33e5 | inactive
rdgA (GeneID 31826) | DRSC17863 | – | – | 6847 | 3.09e5 | inactive
rdgA (GeneID 31826) | DRSC18036 | – | – | 5287 | 3.95e5 | inactive
rdgA (GeneID 31826) | DRSC18827 | – | – | 8263 | 4.32e5 | inactive
CG5731 (GeneID 34355) | DRSC02883 | – | – | 6104 | 5.14e5 | inactive
Gba1b (GeneID 318721) | DRSC21531 | – | – | 8637 | 4.71e5 | inactive
CG8170 (GeneID 35908) | DRSC07087 | – | – | 5348 | 2.63e5 | inactive
Golgin97 (GeneID 36492) | DRSC06895 | – | – | 8805 | 5.89e5 | inactive
Polr2M (GeneID 42309) | DRSC15513 | – | – | 8246 | 4.03e5 | inactive
Vps36 (GeneID 39523) | DRSC09785 | – | – | 5803 | 3.51e5 | inactive
CG10465 (GeneID 35488) | DRSC04848 | – | – | 5639 | 2.74e5 | inactive
PIG-K (GeneID 31163) | DRSC18496 | – | – | 7615 | 4.26e5 | inactive
Tmx3 (GeneID 39775) | DRSC10471 | – | – | 7936 | 3.98e5 | inactive
CG31464 (GeneID 318749) | DRSC14345 | – | – | 6014 | 3.93e5 | inactive
CG18281 (GeneID 40274) | DRSC11742 | – | – | 6892 | 3.23e5 | inactive
tko (GeneID 31228) | DRSC18844 | – | reporter ratio lowered past the hit cutoff | 5346 | 4.66e5 | inactive
CG30099 (GeneID 36818) | DRSC07039 | – | – | 6943 | 2.96e5 | inactive
flap (GeneID 37519) | DRSC03918 | – | – | 5310 | 3.48e5 | inactive
flap (GeneID 37519) | DRSC04087 | – | reporter ratio lowered past the hit cutoff | 1.44e5 | 1.18e6 | inactive
CtBP (GeneID 41602) | DRSC16617 | – | – | 7652 | 3.71e5 | inactive
CG5793 (GeneID 42505) | DRSC15874 | – | – | 7188 | 4.04e5 | inactive
HP1c (GeneID 42696) | DRSC16166 | – | – | 4603 | 3.61e5 | inactive
CG13587 (GeneID 37930) | DRSC04223 | – | – | 6858 | 3.75e5 | inactive
ouib (GeneID 41039) | DRSC14376 | – | – | 6867 | 4.26e5 | inactive
CG12134 (GeneID 36038) | DRSC06109 | – | – | 6422 | 4.69e5 | inactive
NAT1 (GeneID 46020) | DRSC06854 | reporter ratio raised past the hit cutoff | – | 7340 | 2.21e5 | active
Teh1 (GeneID 41215) | DRSC14544 | – | – | 6702 | 3.69e5 | inactive
CG31624 (GeneID 35393) | DRSC02617 | – | – | 10579 | 6.01e5 | inactive
CG13247 (GeneID 40247) | DRSC11695 | – | – | 6650 | 4.42e5 | inactive
CG12024 (GeneID 38243) | DRSC08229 | – | reporter ratio raised past the hit cutoff | 9418 | 2.31e5 | inactive
CG6280 (GeneID 36522) | DRSC06972 | – | – | 6298 | 3.39e5 | inactive
CG5282 (GeneID 40256) | DRSC11775 | – | – | 7754 | 2.97e5 | inactive
CG14820 (GeneID 38754) | DRSC10191 | – | – | 5560 | 3.35e5 | inactive
Nufip (GeneID 40043) | DRSC10397 | – | – | 8525 | 3.92e5 | inactive
msi (GeneID 43087) | DRSC17003 | – | – | 6075 | 3.32e5 | inactive
CG9344 (GeneID 37372) | DRSC04541 | – | – | 7038 | 3.57e5 | inactive
CG16985 (GeneID 38323) | DRSC08501 | – | – | 7302 | 4.38e5 | inactive
CG6073 (GeneID 43180) | DRSC15962 | – | – | 5228 | 3.94e5 | inactive
CG6073 (GeneID 43180) | DRSC22742 | – | – | 2948 | 2.72e5 | inactive
CG42788 (GeneID 41817) | DRSC15330 | – | – | 7757 | 3.21e5 | inactive
CG42788 (GeneID 41817) | DRSC16139 | – | – | 8855 | 4.23e5 | inactive
CG42788 (GeneID 41817) | DRSC16152 | – | – | 6947 | 3.90e5 | inactive
lectin-33A (GeneID 53516) | DRSC02529 | – | – | 7638 | 3.72e5 | inactive
lectin-33A (GeneID 53516) | DRSC22116 | – | – | 9677 | 5.11e5 | inactive
MRG15 (GeneID 41850) | DRSC16731 | – | – | 10739 | 4.27e5 | inactive
Gp150 (GeneID 37549) | DRSC04618 | – | – | 4067 | 4.08e5 | inactive
Wbp2 (GeneID 39460) | DRSC09821 | – | – | 6834 | 3.30e5 | inactive
CG1999 (GeneID 31671) | DRSC18199 | reporter ratio lowered past the hit cutoff | – | 3332 | 3.68e5 | inactive
CG12674 (GeneID 33384) | DRSC00348 | – | – | 7791 | 3.96e5 | inactive
CG11112 (GeneID 35658) | DRSC06038 | – | – | 6790 | 3.01e5 | inactive
CG2608 (GeneID 35323) | DRSC02709 | – | – | 14351 | 2.21e6 | inactive
lncRNA:bxd (GeneID 3772220) | DRSC13176 | – | – | 4092 | 3.07e5 | inactive
Cam (GeneID 36329) | DRSC07353 | – | – | 4931 | 4.76e5 | inactive
Cam (GeneID 36329) | DRSC07354 | – | – | 5183 | 3.31e5 | inactive
l(2)k09022 (GeneID 33960) | DRSC02108 | – | – | 11739 | 3.53e5 | inactive
Drgx (GeneID 5740176) | DRSC00278 | – | – | 6998 | 4.03e5 | inactive
Drgx (GeneID 5740176) | DRSC00537 | – | – | 7251 | 4.33e5 | inactive
CG3309 (GeneID 31450) | DRSC18301 | – | – | 5507 | 4.60e5 | inactive
Kua (GeneID 35300) | DRSC02100 | – | – | 6911 | 3.86e5 | inactive
Map60 (GeneID 35991) | DRSC07464 | – | – | 8064 | 3.66e5 | inactive
CG31680 (GeneID 318881) | DRSC21878 | – | – | 7991 | 5.23e5 | inactive
CG11122 (GeneID 32046) | DRSC19382 | – | – | 7998 | 4.93e5 | inactive
Shc (GeneID 44052) | DRSC11284 | – | – | 5358 | 3.34e5 | inactive
CG5863 (GeneID 42096) | DRSC15898 | – | – | 7691 | 4.05e5 | inactive
CG9083 (GeneID 37982) | DRSC04625 | – | – | 27293 | 1.13e6 | inactive
H15 (GeneID 33769) | DRSC03339 | – | – | 7586 | 4.81e5 | inactive
H15 (GeneID 33769) | DRSC22199 | reporter ratio raised past the hit cutoff | – | 6443 | 1.72e5 | inactive
CG12170 (GeneID 40692) | DRSC12199 | – | – | 4159 | 3.02e5 | inactive
lncRNA:iab4 (GeneID 3772110) | DRSC22331 | – | – | 9321 | 5.51e5 | inactive
Vhl (GeneID 53433) | DRSC07716 | – | – | 5655 | 3.17e5 | inactive
CG14965 (GeneID 38388) | DRSC08424 | – | – | 7130 | 3.86e5 | inactive
GCC88 (GeneID 41350) | DRSC14264 | – | – | 6496 | 3.99e5 | inactive
CG15473 (GeneID 31401) | DRSC18056 | – | – | 6280 | 2.73e5 | inactive
CG10553 (GeneID 43064) | DRSC14254 | – | – | 6642 | 3.08e5 | inactive
CG7483 (GeneID 40987) | DRSC16249 | – | – | 7095 | 5.29e5 | inactive
CG7483 (GeneID 40987) | DRSC22432 | – | – | 8110 | 5.13e5 | inactive
dpr9 (GeneID 2768670) | DRSC14534 | – | – | 9101 | 4.56e5 | inactive
dpr9 (GeneID 2768670) | DRSC14985 | – | – | 7534 | 3.31e5 | inactive
dpr9 (GeneID 2768670) | DRSC14986 | – | – | 7100 | 3.08e5 | inactive
CG30127 (retired record) (GeneID 246473) | DRSC05785 | – | – | 6138 | 3.85e5 | inactive
CG30127 (retired record) (GeneID 246473) | DRSC05786 | – | – | 6075 | 4.32e5 | inactive
CG17028 (GeneID 39741) | DRSC10239 | – | – | 8606 | 3.35e5 | inactive
CR14499 (retired record) (GeneID 3885591) | DRSC06470 | – | – | 6130 | 2.89e5 | inactive

Only “stable assay Renilla, run 1 (luminescence)”, for 6 of the entries above:
flap (GeneID 37519) [DRSC03918]	5310
flap (GeneID 37519) [DRSC04087]	1.44e5
CtBP (GeneID 41602) [DRSC16617]	7652
CG5793 (GeneID 42505) [DRSC15874]	7188
HP1c (GeneID 42696) [DRSC16166]	4603
CG13587 (GeneID 37930) [DRSC04223]	6858
